No constants are given. Whether binding was seen depends on the method and setting. In cells and extracts the contact can be indirect. These calls come from enrichment with a bait or labelling near it, and not all partners need be listed. For some of these results: A no says only that the protein was not detected with the bait.

Sequences of proteins named here, by UniProt entry; tags and fusion partners are left off.
UniProt P06634: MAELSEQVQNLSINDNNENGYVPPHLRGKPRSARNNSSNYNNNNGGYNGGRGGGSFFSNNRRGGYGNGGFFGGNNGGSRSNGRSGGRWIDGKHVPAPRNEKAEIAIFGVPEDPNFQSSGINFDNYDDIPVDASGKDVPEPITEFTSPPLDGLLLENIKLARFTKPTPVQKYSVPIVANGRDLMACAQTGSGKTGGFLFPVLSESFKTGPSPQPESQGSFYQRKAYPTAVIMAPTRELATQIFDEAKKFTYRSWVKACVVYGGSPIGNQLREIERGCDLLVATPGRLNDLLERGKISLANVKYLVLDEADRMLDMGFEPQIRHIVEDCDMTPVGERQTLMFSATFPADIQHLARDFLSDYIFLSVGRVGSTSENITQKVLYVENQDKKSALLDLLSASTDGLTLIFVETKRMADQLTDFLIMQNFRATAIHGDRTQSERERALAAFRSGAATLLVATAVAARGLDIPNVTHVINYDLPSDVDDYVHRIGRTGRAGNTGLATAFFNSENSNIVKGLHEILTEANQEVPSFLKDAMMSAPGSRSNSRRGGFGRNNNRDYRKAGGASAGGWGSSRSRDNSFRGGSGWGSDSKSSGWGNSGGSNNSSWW
UniProt P16892: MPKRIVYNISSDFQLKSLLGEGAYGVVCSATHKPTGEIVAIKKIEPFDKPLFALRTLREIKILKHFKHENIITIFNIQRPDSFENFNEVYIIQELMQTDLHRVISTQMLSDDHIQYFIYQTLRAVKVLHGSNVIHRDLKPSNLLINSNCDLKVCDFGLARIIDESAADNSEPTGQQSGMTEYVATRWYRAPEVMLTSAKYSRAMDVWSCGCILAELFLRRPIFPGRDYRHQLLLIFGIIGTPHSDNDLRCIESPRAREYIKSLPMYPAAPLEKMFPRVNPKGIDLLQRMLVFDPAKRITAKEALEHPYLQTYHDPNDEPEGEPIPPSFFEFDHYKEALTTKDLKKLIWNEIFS
UniProt Q14152: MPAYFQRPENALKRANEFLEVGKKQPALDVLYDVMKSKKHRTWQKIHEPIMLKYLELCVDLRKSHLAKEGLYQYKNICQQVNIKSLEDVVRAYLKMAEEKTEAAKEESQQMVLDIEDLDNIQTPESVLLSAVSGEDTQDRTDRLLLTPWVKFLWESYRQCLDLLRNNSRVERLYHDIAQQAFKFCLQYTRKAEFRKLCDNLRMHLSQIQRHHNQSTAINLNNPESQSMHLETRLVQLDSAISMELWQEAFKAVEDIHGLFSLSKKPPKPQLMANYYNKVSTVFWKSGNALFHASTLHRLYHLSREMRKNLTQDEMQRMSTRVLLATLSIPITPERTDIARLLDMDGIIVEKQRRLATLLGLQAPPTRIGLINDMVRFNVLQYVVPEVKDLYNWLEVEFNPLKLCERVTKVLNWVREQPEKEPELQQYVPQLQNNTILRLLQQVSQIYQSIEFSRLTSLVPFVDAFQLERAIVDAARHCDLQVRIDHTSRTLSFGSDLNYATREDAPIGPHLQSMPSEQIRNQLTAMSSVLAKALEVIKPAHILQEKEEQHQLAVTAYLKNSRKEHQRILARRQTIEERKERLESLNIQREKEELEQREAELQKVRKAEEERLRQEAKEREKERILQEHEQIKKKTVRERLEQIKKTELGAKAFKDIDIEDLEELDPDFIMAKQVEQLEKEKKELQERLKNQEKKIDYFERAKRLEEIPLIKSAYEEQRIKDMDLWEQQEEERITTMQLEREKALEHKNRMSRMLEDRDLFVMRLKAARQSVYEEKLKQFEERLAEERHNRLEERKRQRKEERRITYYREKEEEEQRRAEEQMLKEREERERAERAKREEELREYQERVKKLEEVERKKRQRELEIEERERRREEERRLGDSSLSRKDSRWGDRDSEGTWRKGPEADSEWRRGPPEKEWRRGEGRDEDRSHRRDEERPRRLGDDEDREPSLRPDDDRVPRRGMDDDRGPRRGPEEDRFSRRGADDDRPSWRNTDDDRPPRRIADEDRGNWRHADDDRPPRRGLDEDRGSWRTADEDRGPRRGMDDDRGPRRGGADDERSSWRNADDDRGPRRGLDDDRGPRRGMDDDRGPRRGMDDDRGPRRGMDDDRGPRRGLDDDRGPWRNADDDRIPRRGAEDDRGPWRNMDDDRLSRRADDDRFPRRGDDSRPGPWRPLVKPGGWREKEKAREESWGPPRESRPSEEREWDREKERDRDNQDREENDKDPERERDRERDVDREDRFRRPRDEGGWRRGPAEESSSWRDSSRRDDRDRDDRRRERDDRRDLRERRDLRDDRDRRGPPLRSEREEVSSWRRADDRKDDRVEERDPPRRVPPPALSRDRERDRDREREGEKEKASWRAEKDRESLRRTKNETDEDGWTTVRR
UniProt Q13868: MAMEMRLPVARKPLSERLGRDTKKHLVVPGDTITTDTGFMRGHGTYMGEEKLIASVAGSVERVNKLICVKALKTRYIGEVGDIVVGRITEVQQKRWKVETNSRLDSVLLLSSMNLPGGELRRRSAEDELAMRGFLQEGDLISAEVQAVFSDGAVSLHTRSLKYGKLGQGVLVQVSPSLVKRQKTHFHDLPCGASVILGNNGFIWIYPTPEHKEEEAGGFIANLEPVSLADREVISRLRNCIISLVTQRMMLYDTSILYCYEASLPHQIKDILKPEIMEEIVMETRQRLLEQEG
UniProt O95639: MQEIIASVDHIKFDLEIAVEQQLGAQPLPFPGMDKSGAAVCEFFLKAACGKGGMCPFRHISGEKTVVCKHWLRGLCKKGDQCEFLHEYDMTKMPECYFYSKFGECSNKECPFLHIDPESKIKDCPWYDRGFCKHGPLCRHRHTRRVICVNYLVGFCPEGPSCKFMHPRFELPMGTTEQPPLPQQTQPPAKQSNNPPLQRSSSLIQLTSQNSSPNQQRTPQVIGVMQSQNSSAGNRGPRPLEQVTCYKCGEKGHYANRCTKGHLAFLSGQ
UniProt P24784: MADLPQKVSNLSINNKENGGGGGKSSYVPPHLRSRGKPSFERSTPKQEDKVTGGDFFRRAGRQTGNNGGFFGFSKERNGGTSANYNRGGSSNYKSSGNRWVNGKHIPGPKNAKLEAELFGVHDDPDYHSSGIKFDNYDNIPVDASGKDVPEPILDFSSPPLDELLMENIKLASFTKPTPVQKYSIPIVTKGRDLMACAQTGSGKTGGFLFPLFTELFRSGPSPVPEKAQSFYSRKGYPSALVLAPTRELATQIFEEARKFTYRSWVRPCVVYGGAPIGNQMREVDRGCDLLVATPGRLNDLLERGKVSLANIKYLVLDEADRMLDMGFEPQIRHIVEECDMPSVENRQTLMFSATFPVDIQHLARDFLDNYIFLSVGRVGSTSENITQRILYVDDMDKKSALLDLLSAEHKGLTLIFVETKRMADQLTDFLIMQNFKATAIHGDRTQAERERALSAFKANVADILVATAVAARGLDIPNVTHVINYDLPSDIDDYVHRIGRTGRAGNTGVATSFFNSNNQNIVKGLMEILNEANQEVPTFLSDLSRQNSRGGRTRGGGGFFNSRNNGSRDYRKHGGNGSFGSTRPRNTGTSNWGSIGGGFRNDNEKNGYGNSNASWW
UniProt P40460: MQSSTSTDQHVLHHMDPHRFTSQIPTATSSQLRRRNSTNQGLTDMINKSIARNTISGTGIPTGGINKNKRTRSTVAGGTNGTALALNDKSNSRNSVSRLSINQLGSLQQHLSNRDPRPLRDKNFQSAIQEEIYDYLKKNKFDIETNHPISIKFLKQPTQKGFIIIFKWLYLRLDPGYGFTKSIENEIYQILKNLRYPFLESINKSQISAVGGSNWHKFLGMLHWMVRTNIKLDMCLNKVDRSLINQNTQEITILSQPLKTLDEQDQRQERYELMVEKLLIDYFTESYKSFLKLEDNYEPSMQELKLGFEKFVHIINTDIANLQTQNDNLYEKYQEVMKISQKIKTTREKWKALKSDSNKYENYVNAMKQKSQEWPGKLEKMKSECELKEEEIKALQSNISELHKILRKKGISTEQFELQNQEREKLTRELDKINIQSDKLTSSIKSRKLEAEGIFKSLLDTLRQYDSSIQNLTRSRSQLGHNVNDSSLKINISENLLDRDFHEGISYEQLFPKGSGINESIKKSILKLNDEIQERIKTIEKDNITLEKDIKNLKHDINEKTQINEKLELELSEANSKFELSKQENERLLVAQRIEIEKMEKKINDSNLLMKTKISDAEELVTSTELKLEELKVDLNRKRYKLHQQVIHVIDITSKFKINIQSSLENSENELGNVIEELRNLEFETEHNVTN
UniProt P60228: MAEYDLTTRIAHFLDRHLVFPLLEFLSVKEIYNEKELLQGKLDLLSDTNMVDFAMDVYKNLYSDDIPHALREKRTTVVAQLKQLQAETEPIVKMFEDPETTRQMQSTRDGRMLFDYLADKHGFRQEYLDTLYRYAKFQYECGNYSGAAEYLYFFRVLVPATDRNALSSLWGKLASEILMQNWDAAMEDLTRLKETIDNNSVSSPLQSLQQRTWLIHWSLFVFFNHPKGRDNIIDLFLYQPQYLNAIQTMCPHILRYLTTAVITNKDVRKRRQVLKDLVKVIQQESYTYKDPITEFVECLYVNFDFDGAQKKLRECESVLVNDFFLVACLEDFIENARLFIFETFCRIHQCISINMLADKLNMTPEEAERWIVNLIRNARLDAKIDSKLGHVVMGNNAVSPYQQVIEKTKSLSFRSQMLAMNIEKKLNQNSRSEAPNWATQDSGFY
UniProt O00303: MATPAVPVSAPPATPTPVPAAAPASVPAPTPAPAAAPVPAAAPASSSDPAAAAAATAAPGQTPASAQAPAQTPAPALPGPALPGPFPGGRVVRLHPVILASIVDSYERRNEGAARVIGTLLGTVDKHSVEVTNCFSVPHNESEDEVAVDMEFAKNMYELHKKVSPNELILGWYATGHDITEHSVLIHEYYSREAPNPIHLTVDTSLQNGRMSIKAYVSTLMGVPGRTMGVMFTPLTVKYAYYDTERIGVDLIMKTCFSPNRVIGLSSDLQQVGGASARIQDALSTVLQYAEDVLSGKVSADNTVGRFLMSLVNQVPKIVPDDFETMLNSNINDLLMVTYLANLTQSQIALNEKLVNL
UniProt O75822: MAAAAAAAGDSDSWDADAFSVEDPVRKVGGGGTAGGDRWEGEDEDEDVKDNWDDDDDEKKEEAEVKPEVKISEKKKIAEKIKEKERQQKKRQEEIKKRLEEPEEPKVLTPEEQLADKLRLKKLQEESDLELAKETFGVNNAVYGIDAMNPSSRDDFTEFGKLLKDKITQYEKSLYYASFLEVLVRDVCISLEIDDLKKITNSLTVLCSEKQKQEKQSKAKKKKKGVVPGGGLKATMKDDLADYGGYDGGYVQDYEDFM
UniProt Q9UBQ5: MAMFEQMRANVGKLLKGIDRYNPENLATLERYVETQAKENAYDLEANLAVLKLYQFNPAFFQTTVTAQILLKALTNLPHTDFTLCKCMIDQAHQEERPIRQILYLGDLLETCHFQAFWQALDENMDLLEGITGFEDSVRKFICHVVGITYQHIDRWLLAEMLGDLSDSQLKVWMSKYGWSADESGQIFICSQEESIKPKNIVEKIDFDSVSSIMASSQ
UniProt Q9Y262: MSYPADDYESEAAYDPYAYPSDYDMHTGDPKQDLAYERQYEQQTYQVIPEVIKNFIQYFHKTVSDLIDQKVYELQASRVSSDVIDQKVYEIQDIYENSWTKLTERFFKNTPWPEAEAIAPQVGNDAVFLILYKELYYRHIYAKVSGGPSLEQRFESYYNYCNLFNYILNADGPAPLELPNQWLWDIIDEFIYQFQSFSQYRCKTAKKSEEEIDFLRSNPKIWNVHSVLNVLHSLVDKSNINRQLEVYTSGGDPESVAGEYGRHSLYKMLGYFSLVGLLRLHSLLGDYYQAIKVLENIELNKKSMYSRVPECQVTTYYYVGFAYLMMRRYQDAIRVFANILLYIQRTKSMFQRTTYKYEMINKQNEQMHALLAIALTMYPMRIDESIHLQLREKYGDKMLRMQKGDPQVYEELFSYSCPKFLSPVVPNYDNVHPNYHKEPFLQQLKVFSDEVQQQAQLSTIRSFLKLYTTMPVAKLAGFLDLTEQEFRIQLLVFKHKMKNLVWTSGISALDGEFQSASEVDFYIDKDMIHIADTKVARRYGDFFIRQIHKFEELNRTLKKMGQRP

Test in all cases: affinity purification with mass spectrometry
Assay [1] concerns the target T1, CSTF2 (human (endogenous in HEK293XT)) (UniProt P33240).
T1 sequence: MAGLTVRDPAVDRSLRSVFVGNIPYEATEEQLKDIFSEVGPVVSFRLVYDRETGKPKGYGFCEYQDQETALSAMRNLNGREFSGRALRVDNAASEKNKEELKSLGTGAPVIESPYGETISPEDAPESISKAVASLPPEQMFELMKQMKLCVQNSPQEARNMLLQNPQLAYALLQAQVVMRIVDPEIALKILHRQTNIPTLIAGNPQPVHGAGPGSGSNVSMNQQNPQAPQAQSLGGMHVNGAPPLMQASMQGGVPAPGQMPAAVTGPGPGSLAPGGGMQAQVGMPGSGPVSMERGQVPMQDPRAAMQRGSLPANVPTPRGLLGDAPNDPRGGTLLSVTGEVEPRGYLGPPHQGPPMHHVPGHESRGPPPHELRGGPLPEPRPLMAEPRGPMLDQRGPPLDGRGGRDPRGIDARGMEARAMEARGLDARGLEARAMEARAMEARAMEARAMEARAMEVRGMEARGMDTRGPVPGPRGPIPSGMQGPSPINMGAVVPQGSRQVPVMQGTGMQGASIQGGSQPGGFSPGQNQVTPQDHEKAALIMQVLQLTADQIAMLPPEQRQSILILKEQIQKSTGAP

Assay [2] concerns the target DED1 (Saccharomyces cerevisiae) (UniProt P06634).
Assay [3] has as its target T2, EXOSC10 (human (endogenous in HEK293XT)) (UniProt Q01780).
T2 sequence: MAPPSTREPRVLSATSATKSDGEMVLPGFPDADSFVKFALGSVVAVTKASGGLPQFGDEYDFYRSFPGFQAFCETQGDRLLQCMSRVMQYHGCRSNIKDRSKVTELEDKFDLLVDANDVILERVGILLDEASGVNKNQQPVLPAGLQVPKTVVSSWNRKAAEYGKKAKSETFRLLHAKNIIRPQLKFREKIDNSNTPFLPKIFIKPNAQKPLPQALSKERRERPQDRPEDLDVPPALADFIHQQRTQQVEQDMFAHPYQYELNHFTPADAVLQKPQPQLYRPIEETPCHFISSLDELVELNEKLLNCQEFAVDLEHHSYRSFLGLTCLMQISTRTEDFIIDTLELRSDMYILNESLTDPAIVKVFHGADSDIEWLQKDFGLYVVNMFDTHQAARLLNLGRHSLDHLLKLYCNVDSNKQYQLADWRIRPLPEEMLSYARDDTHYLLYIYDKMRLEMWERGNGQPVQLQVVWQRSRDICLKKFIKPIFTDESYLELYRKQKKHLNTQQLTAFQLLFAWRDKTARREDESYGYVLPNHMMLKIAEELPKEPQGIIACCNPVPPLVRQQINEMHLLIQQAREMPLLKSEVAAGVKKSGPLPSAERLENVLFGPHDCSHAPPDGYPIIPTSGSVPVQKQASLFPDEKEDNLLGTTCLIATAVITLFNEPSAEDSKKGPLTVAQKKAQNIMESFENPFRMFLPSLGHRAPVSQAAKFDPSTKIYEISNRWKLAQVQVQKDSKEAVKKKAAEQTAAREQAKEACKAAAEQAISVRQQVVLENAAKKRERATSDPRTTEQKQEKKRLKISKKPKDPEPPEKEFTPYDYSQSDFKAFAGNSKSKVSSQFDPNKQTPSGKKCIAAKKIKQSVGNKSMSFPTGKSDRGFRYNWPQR

The target of assay [4] is FUS3 (Saccharomyces cerevisiae) (UniProt P16892).
Assay [5] concerns the target eIF3A (human (endogenous in HEK293XT)) (UniProt Q14152).
Assay [6] has as its target EXOSC2 (human (endogenous in HEK293XT)) (UniProt Q13868).

With CPSF4 (from UniProt O95639 1-269), in assay [1], the binding result is on record as “binds”.

On to DBP1 (from UniProt P24784 1-617), for which the binding entry in assay [2] was “binds”. As for EXOSC2 (from UniProt Q13868 1-293), the binding entry in assay [3] is recorded as “binds”. For NDC80 (from UniProt P40460 1-691), the binding result in assay [4] is “no binding”. Turning to eIF3E (from UniProt P60228 1-445), the binding result in assay [5] is on record as “binds”. On the same count and under the same terms, next, eIF3F (from UniProt O00303 1-357): “binds”.

As for eIF3J (from UniProt O75822 1-258), in assay [5], the binding entry is reported as “binds”. In the case of eIF3K (from UniProt Q9UBQ5 1-218), the binding result in assay [5] is on record as “binds”. For the molecule eIF3L (from UniProt Q9Y262 1-564), the binding entry in assay [5] is recorded as “binds”.

B1: EXOSC10 (protein, UniProt Q01780 1-885)
chain: T2 sequence
In the case of B1, in assay [6], the binding entry was “binds”.

The values above are taken from doi:10.1101/2025.11.21.689547.
